Results are given in words; binding and its absence hold for the method and conditions named. In cells and extracts the contact can be indirect. Some binding calls cover weakened binding; strength is not graded here.
Molecular target: PROX1 transcription factor (human (endogenous in RD)) (UniProt Q92786)
Assay: co-IP

Amino acid sequences for entries named in this document (tags omitted).
UniProt Q92786: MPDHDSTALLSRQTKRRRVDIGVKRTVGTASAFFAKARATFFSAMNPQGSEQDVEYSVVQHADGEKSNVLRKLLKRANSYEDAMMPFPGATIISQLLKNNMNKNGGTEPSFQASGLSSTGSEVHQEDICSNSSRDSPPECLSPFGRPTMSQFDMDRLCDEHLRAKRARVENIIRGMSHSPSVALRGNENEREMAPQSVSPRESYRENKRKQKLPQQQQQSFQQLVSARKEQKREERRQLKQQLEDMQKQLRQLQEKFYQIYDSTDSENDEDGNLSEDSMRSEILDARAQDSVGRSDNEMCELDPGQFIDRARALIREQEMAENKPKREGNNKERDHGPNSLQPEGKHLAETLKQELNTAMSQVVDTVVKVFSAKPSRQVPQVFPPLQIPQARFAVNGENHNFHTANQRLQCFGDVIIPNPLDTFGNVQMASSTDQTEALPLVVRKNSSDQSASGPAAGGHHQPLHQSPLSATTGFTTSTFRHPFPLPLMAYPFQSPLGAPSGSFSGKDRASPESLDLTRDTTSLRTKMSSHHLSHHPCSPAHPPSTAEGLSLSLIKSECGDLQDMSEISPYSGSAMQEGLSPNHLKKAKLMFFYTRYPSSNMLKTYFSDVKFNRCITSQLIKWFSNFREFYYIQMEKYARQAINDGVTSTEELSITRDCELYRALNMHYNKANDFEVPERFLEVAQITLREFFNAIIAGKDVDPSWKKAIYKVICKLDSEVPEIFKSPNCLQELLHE
UniProt Q13547: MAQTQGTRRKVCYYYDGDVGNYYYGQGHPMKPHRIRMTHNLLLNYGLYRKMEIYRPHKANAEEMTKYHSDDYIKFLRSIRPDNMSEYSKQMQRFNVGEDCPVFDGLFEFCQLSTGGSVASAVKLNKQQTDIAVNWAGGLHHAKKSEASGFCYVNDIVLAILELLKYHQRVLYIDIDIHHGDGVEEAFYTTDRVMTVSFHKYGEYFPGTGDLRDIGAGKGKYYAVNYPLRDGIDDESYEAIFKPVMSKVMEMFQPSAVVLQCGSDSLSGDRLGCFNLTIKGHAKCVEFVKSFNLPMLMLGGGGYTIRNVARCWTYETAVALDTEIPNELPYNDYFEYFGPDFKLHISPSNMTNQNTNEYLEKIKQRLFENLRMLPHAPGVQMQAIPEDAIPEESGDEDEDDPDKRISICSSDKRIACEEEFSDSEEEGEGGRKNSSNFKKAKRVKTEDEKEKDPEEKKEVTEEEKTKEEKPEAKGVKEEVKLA

binding: binds
Substance: HDAC1 (from UniProt Q13547 1-482) (enzyme)

Reference: article doi:10.1101/2020.04.19.045989
